Assay results published in PubChem BioAssay AID624297 (National Center for Advancing Translational Sciences (NCATS), 2012).
Out of some 340,000 compounds screened, about 6,200 (1.8%) were called active. Inconclusive means that the source gave no clear call. Such entries were picked first, then a sample of the others. Calls come from the whole dose curve; as a rule, active = well fitted activation curve with a large enough effect; inconclusive = small, poorly fitted or top-dose-only effect; inactive = no such curve, though single readings can be large or run the other way. Potencies beside an inconclusive call are fits to weak or partial responses and may not hold up.
Potency is the fitted concentration of half-maximal effect.

Assay: A quantitative high throughput screen for small molecules that induce DNA re-replication in SW480 colon adenocarcinoma cells. For re-replication activation: % of control where 0% means no effect. Note: nearly all actives have a fitted effect of over 55% in size.
Conditions: Hoechst DNA content imaging, 48 h; re-replication activation: at 46.1 µM (top of the series) unless noted
Method in brief: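 SW480 cells exposed to compounds for 48 hr at 37 C, 5% CO2, then Hoechst-stained 40 min. Nuclear DNA content imaged by fluorescence scanning (405 nm excitation, 500-530 nm emission); re-replication scored as increased high-intensity nuclei.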
In the case of O=C(NCc1ccc(F)cc1)C(c1cccnc1)N(C(=O)c1csnn1)c1ccccc1 (configuration not stated), the “re-replication activation” value is reported as inactive: 7.28%.
For O=C1/C(=C/c2ccco2)N=C(N2CCCCC2)N1c1ccccc1, the Potency was inconclusive: 32.6 µM [activator, single point].
With CCOc1ccccc1C1C(C(=O)OC)=C(N)OC2=C1C(=O)CCC2 (configuration not stated) the “re-replication activation” value was inactive: 2.04%.
With CC[C@]12c3[nH]c4cc(-c5ccco5)ccc4c3CCN1C(=O)[C@@H](CC(=O)NC(C)(C)C)C[C@@H]2C(=O)N1CCN(C(=O)C2CC2)CC1 the Potency was inconclusive: 5.17 µM [activator, single point].
For COc1ccccc1C1CC(c2c(-c3ccccc3)c3cc(Cl)ccc3[nH]c2=O)=NN1S(C)(=O)=O (configuration not stated), the Potency was inconclusive: 20.6 µM [activator, single point].
For C=CCN(C(=O)c1ccccc1)c1ccc(OC)cc1, the Potency was inconclusive: 35.5 µM [activator, single point].
With Cc1cnc(C(=O)Nc2ccc(N3CCN(C(=O)OC(C)(C)C)CC3)cc2)cn1 the Potency was inconclusive: 3.55 µM [activator, full curve].
With CC1CN(Cc2cc(=O)oc3cc(O)ccc23)CC(C)O1 (configuration not stated) the “re-replication activation” value was inactive: -20.6%.
For CN(CCN1CCOCC1)C(=O)CC1C(=O)NCCN1Cc1ccccc1F (configuration not stated), the Potency was inconclusive: 18.4 µM [activator, single point].
With O=C(NCCS(=O)(=O)N1CCN(c2ccccc2F)CC1)c1ccc(Cl)cc1 the “re-replication activation” value was inactive: -3.36%.
With O=c1c2ccccc2nc(-c2ccc([N+](=O)[O-])cc2)n1O the Potency was inconclusive: 29.1 µM [activator, partial curve, poor fit].
In the case of O=C1NC(c2ccc(-c3ccccc3[N+](=O)[O-])o2)C(C(=O)c2ccccc2)C(O)(C(F)(F)F)N1 (configuration not stated), the Potency is reported as inconclusive: 6.51 µM [activator, single point].
For Cc1cccc(NC(=O)C2CCCN(S(=O)(=O)c3cccc4nsnc34)C2)c1 (configuration not stated), the Potency was inconclusive: 29.1 µM [activator, single point].
For COc1cc(C(=O)Nc2ccc(C(F)(F)F)cc2)ccc1OCC(=O)N1CCOCC1, the Potency was inconclusive: 0.0046 µM [activator, full curve, poor fit].
With CSc1nc(C)c2c(n1)N(c1ccc(F)cc1)CC2 the “re-replication activation” value was inactive: -6.09%.
With O=C(NCc1ccncc1)C1CCN(S(=O)(=O)Cc2ccccc2)CC1 the Potency was inconclusive: 0.184 µM [activator, full curve, poor fit].
With CN1C(=S)N(c2cccnc2)C(=O)/C1=C\c1ccc(C(C)(C)C)cc1 the Potency was inconclusive: 20.6 µM [activator, single point].
With C=CC1CN(C(=O)OCC(Cl)(Cl)Cl)C2CC3c4ccc(OC)cc4NC3C3CC1C2CO3 (configuration not stated) the Potency was inconclusive: 29.1 µM [activator, single point].
With CN(C)C(=O)/C(=C\c1ccc(-c2cccc([N+](=O)[O-])c2)o1)NC(=O)c1ccccc1 the “re-replication activation” value was inactive: -8.02%.
For COc1cc(-c2nc(-c3ccc4c(c3)-c3ccccc3S4(=O)=O)c(-c3ccccc3)[nH]2)cc(OC)c1OC, the re-replication activation was inactive: 4.59% [at 9.22 µM].
With COc1cc(/C(O)=C(\C#N)c2nc3ccccc3[nH]2)cc(OC)c1OC the Potency was inconclusive: 18.4 µM [activator, single point].
In the case of CC1(NC(=O)c2ccccc2)CCN(CCCc2ccccc2)C1=O (configuration not stated), the “re-replication activation” value is reported as inactive: -5.96%.
In the case of O=C(Nc1ccc(F)cc1)C1CCC(CNc2c(N3CCCCC3)c(=O)c2=O)CC1 (configuration not stated), the “re-replication activation” value is reported as inactive: -3.77%.
In the case of COc1ccc(C(=O)NCCNc2nc3ccc(C)cc3cc2C#N)cc1OC, the Potency is reported as inconclusive: 20.6 µM [activator, single point].
For Cc1ccc(S(=O)(=O)N2CCCCC2)cc1NC(=O)Cn1ncc(Cl)c(Cl)c1=O, the Potency was inconclusive: 2.59 µM [activator, full curve, poor fit].
In the case of CCCCCCC1CC(CSc2ncn[nH]2)OC1=O (configuration not stated), the “re-replication activation” value is reported as inactive: 0.117%.
With CN(Cc1ccccc1OCCO)CC1CCCN(CCc2ccc(Cl)cc2)C1 (configuration not stated) the “re-replication activation” value was inactive: 7.49%.
With COc1ccc(Cl)cc1NC(=S)N(Cc1ccccc1C)CC1CCC(C(=O)O)CC1 (configuration not stated) the Potency was inconclusive: 25.9 µM [activator, single point].
In the case of Cc1cc(Cl)ccc1OC(C)C(=O)NN=C1CCCCCC1 (configuration not stated), the Potency is reported as inconclusive: 29.1 µM [activator, single point].
For O=C1c2cccc3cccc(c23)C(=O)N1CCN1CCN(CC(O)COc2ccc3ccccc3c2)CC1 (configuration not stated), the Potency was inconclusive: 29.1 µM [activator, single point].
In the case of CC(=O)C[C@H]1c2cc(C(F)(F)F)ccc2S(=O)(=O)N1C1CCCCC1, the Potency is reported as inconclusive: 25.9 µM [activator, single point].
In the case of CCCOc1ccc(N2C(=O)C3C(C(C)C)NC4(C(=O)c5ccccc5C4=O)C3C2=O)cc1 (configuration not stated), the “re-replication activation” value is reported as inactive: -6.2%.
For CCOC(=O)N/N=C\c1ccc([N+](=O)[O-])o1, the “re-replication activation” value was inactive: -1.02%.
In the case of O=c1oc2cc(O[C@@H]3OC[C@@H](O)[C@H](O)[C@H]3O)ccc2c2ccccc12, the Potency is reported as inconclusive: 1.03 µM [activator, full curve, poor fit].
With O=C(N/N=C/c1ccccc1)c1n[nH]c2c1CCCC2 the Potency was inconclusive: 29.1 µM [activator, single point].
For O=C(CCCN1C(=O)C(c2ccccc2)Oc2cccnc21)NCc1ccccc1Cl (configuration not stated), the Potency was inconclusive: 29.1 µM [activator, single point].
In the case of Cc1noc(C)c1C(=O)OCC(=O)Nc1ccccc1SCC#N, the Potency is reported as inconclusive: 0.517 µM [activator, full curve, poor fit].
In the case of O=C(Nc1cc(Cl)ccc1-n1cncn1)c1cc(F)c(F)c(F)c1F, the “re-replication activation” value is reported as inactive: 2.68%.
With Cn1cccc1CC(=O)N/N=C/c1ccc(C(C)(C)C)cc1 the Potency was inconclusive: 4.11 µM [activator, full curve].
With N#CC1=C(O)CCCn2c1nc1ccccc1c2=O the “re-replication activation” value was inactive: -4.01%.
For Cc1cc(C)c(S(=O)(=O)N2CCOC2CNC(=O)C(=O)NCCN2CCOCC2)c(C)c1 (configuration not stated), the Potency was inconclusive: 23.1 µM [activator, partial curve, poor fit].
In the case of Cc1ccc(-c2csc(NCCn3c(C(F)(F)F)nc4ccccc43)n2)cc1, the Potency is reported as inconclusive: 20.6 µM [activator, partial curve, poor fit].
